The campaign covered roughly 360,000 compounds. About 7,500 (2.1%) were called active. The inconclusive results got no clear call from the source; some entries with a clear call stand among them for comparison. The call rests on the fitted dose curve; in most records, active means well fitted inhibition curve with a large enough effect; inconclusive means small, poorly fitted or top-dose-only effect, or effect the other way; inactive means flat fitted curve, though single readings scatter. Potencies beside an inconclusive call are fits to weak or partial responses and may not hold up.
Assay: Nrf2 qHTS screen for inhibitors; further: nearly all actives have a fitted effect of over 60% in size
Details: A549 ARE-Fluc reporter, luciferase luminescence, 18-24 h; activity change, negative = inhibition: at 46 µM (top of the series)
In short: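 Reporter: ARE-Fluc in A549. Exposure: 18-24 h, 37 °C, 5% CO2, 5% FBS OPTI-MEM. Readouts: fluorescent cytotoxicity (CellTiter-Fluor), then luminescent Nrf2 signal after BugLite.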
On the % scale 0 is the no-effect control and ±100 the full control effect; potency means the concentration at half of the fitted maximal effect.

Structure (SMILES)	Potency	activity change, negative = inhibition
S=C(NCCc1ccccc1)N1CCCCC1	inconclusive: 9.2 µM [activator, partial curve]	
c1ccc(Nc2cc(-c3ccccc3)nc3ncnn23)cc1	inconclusive: 7.31 µM [falling, partial curve, poor fit]	
C=C1C(=O)OC2C=C(CO)C3OC3C3OC3(C)CC(OC(=O)/C(=C/C)COC(C)=O)C12 (centres undefined)	active: 23.1 µM	
CSc1ncccc1C(=O)OCC(=O)c1cc(C)n(C)c1C	inconclusive: 11.6 µM [activator, partial curve]	
CC1(c2cccc([N+](=O)[O-])c2)CC(C)(C)N(C(=O)c2ccccc2)c2ccccc21 (centres undefined)	inconclusive: 29.1 µM [falling, single point]	
Cc1nn(-c2ccccc2)c(Cl)c1C(=O)NCC(=O)O		inactive: -12%
O=C(Cn1ccc2cc(S(=O)(=O)N3CCCC3)ccc21)NCc1ccc(Cl)cc1	inconclusive: 20.6 µM [falling, partial curve, poor fit]	
Cc1c(C(=O)N(C)c2ccc(Cl)cc2)cnn1-c1ccccc1	inconclusive: 6.51 µM [activator, full curve, poor fit]	
N#C/C(=N\Nc1ccccc1Cl)C(=O)c1ccccc1	inconclusive: 29.1 µM [falling, partial curve, poor fit]	
Cc1ccc(S(=O)(=O)N(C)C)cc1NC(=O)c1cncc(Br)c1	active: 11.6 µM	
O=C(OCC#CCSc1nnc(-c2cccc3ccccc23)o1)c1ccc(C(F)(F)F)cc1		inactive: 1.03%
CC(Nc1nc(-c2ccccc2O)nc2ccccc12)c1ccccc1 (centres undefined)	inconclusive: 18.4 µM [activator, single point]	
CC1(c2ccc3ccccc3c2)NC(=O)N(CC(=O)N2CCN(Cc3ccccc3)CC2)C1=O (centres undefined)	active: 1.3 µM	
O=C(Nc1ccc2c(c1)OCCO2)C1CCCN(c2ncccn2)C1 (centres undefined)	inconclusive: 7.31 µM [activator, partial curve, poor fit]	
CC1=C(C(=O)OC2CCCCC2)C(c2cccnc2)n2nnnc2N1 (centres undefined)	active: 8.2 µM	
Cc1ccc(Nc2nc(N)nc(CSC(=S)N3CCOCC3)n2)cc1	inconclusive: 23.1 µM [activator, single point]	
O=C(Cc1ccc2c(c1)OCO2)NN=Cc1ccc([N+](=O)[O-])o1	inconclusive: 9.2 µM [falling, partial curve]	
Cc1oc2ncnc(N3CCCCC3)c2c1C(=O)NCC1CCN(Cc2ccccc2F)CC1	inconclusive: 32.6 µM [activator, single point]	
CCOC(=O)C(=O)N1CCC(Cc2ccccc2)CC1		inactive: -1.71%

No new results follow: two of the compounds above.
Structure (SMILES)	Potency	activity change, negative = inhibition
N#C/C(=N\Nc1ccccc1Cl)C(=O)c1ccccc1	inconclusive: 29.1 µM [falling, partial curve, poor fit]	
Cc1ccc(S(=O)(=O)N(C)C)cc1NC(=O)c1cncc(Br)c1	active: 11.6 µM	

Reference: PubChem BioAssay AID504444 (National Center for Advancing Translational Sciences (NCATS), 2011)
